This passage reports binding results from article doi:10.1101/2023.08.23.554465.

Amino acid sequences for entries named in this document (tags omitted).
UniProt P46938: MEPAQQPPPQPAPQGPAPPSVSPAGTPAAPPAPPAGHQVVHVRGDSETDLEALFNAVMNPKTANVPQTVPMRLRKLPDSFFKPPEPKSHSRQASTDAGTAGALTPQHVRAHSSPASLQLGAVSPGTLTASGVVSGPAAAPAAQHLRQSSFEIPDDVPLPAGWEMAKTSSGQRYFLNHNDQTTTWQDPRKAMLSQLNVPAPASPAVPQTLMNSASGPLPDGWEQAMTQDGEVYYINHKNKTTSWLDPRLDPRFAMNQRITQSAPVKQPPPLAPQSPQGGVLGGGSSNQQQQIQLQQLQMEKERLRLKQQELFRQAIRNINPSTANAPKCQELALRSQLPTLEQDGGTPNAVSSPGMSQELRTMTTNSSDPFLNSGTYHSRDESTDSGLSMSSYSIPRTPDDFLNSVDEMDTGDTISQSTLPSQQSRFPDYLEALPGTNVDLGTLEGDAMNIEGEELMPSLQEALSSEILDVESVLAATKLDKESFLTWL
UniProt Q9WUD1: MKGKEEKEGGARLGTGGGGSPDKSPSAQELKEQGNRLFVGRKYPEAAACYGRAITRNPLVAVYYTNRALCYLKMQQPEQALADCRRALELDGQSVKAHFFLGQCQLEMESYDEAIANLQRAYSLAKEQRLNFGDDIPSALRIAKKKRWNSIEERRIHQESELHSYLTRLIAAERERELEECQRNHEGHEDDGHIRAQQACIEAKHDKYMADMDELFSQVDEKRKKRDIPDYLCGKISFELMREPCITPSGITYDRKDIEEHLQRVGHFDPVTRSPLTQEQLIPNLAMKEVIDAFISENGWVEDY

These are yes or no findings as the source states them, for the method shown. In cells and extracts the contact can be indirect. These calls come from enrichment with a bait or labelling near it, and not all partners need be listed.

The assay concerns the target Yes-Associated Protein (YAP) (mouse (endogenous in EpH4)) (UniProt P46938). In words: affinity purification with mass spectrometry.

Take Stub1 (from UniProt Q9WUD1 1-304): the binding result was “binds”.

B1: Ube2c (protein, UniProt Q9D1C1 1-179)
chain: MASQNRDPAAASVAAVRKGAEPCGGAARGPVGKRLQQELMILMTSGDKGISAFPESDNLFKWVGTIHGAAGTVYEDLRYKLSLEFPSGYPYNAPTVKFLTPCYHPNVDTQGNICLDILKDKWSALYDVRTILLSIQSLLGEPNIDSPLNTHAAELWKNPTAFKKYLQETYSKQVSSQDP
Regarding B1, the binding result is “binds”.
